For three compounds, activity change, negative = inhibition results are on record in PubChem BioAssay AID1745853 (National Center for Advancing Translational Sciences (NCATS), 2022).

Shown are results outside the selection of hits, which stands elsewhere. Records with an inconclusive call do not appear. Activity calls are given as the source filed them. The rule behind the calls is not given here.

Holding throughout (test): Primary Screen for Target Class Profiling of Small Molecule Inhibitors of Methyltransferases
The target in assay [1] is Catechol O-methyltransferase (Homo sapiens) (UniProt P21964). The note with it: purified enzyme, MTase-Glo SAH luminescence; at 40 µM; stronger effect = lower value. An excerpt: (§1) PI: Matthew D. Hall Ph.D. and Quinlin M. Hanson Ph.D.
(§2) National Center for Advancing Translational Sciences (NCATS)
(§3) National Institute of Health (NIH), Rockville, MD
(§4) Target class profiling (TCP) is a chemical biology approach amenable to investigating understudied biological targets. TCP is achieved by developing a generalizable assay platform and applying it to screen a curated set of compound libraries against representative members of a target class. Small molecule methyltransferases (SMMTase) are a subclass of methyltransferase that act on metabolites to modulate signaling pathways, metabolize xenobiotics, or balance the available methyl pool. We screened four curated libraries totaling 27,574 unique compounds against the SMMTases nicotinamide N-methyltransferase (NNMT), phenylethanolamine N-methyltransferase (PNMT), histamine N-methyltransferase (HNMT), glycine N-methyltransferase (GNMT), catechol O-methyltransferase (COMT), and guanidinoacetate N-methyltransferase (GAMT). The data generated by this TCP can be leveraged for informed tool molecule development. For example, in the associated publication we identified a chemotype of HNMT-selective inhibitors. Additionally, we identified a putative SMMTase-selective inhibitor with potential as a tool molecule for studying broader methyltransferase biology.
(§5) High-through put screening assays were developed at the National Center for Advancing Translational Science (NCATS) for the enzymes NNMT, PNMT, HNMT, GNMT, COMT, and GAMT. Enzymatic activity was measured as a function of SAM cofactor conversion using the MTase Glo kit (Promega) for all enzymes. All assays were performed in 1536-well format with substrates and SAM concentrations at KM values. Enzyme concentration and assay timing were optimized for 10-20% SAM conversion. Initial screening of 27,574 compounds was done as single-point assays using the highest compound concentration (40 uM). […] These compounds were replated in 11-point dose response and assayed against NNMT, PNMT, HNMT, GNMT, COMT, GAMT, and a counter-assay. The IC50 and efficacy (maximal response) values were determined for each dose-response curve. These values are also accounted for in the area under the curve (AUC) values.
(§6) PROTOCOL TABLE (as described by Inglese J, Shamu CE and Guy RK. 2007)
(§7) SEQUENCE No. (e.g., 1, 2, 3, etc.); […] (e.g., Cells, Incubation, Reagent, etc.); VALUE; DESCRIPTION.
(§8) 1; Reagent; 2 uL; SMMTase Enzyme (2x) in reaction buffer, columns 1- 48.
(§9) 2; Reagent; 1 uL; SAM (4x) in reaction buffer, columns 1-48.
(§10) 3; Controls; 23 nL; DMSO in column 4; sinefungin in DMSO (0 uM - 40 uM) in 7-point 1:2 dilution series (n = 2) in column 2.
(§11) 4; Compounds; 23 nL; Columns 5-48.
(§12) 5; Reagent; 1 uL; Substrate (4x) in reaction buffer, columns 2-48.
(§13) 6; Time; 20-30 min; Incubation.
(§14) 7; Reagent; 1 uL; MTase-Glo reagent (5X), columns 1-48.
(§15) 8; Time; 30 min; Incubation.
(§16) 9; Reagent; 5 uL; MTase-Glo Detection reagent, columns 1-48.
(§17) 10; Time; 30 min; Incubation, luminescence evolution.
(§18) 11; Detection; Luminescence; ViewLux uHTS Microplate Imager (PerkinElmer).
(§19) NOTES (numbers refer to Sequence numbers above)
(§20) 1, 2, 5. White Medium Binding Greiner 1536-well plates (Cat #789175-F, Greiner Bio-One, Monroe, NC); Reaction buffer: 50 mM Tris, pH 8.0, 3 mM MgCl2, 1 mM EDTA, 50 mM NaCl, 1 mM DTT, and 0.1 mg/mL BSA. Evaporation was prevented by covering assay plates with metal lids containing holes to allow gas diffusion.
(§21) 1. Six SMMTase were profiled: HNMT, GNMT, PNMT, COMT, NNMT, GAMT
(§22) 5. The corresponding substrate was used for each enzyme: HNMT - 5.3 uM Histamine; GNMT - >500 uM Glycine; PNMT - 16.2 uM Norephinephrine; COMT - 13.7 uM Norephinephrine; NNMT - 3.8 uM Nicotinamide; GAMT - 2.5 uM Guanidinoacetate.6, 8, 10. Room temperature
(§23) 6. Final reaction conditions: 10 nM COMT, 5 uM SAM, 15 uM norepinephrine, 50 mM Tris, pH 8.0, 3 mM MgCl2, 1 mM EDTA, 50 mM NaCl, 1 mM DTT, and 0.1 mg/mL BSA; refer to tables 2 and S1 for specific timing.
8. […]

Assay [2] concerns the target Glycine N-methyltransferase (Homo sapiens) (UniProt Q14749). The note with it: purified enzyme, MTase-Glo SAH luminescence; measured here: GNMT inhibition; at 40 µM; stronger effect = lower value.
Text: as §1, §2, §3, §4, §5, §6, §7, §8, §9, §10, §11, §12, §13, §14, §15, §16, §17, §18, §19, §20, §21, §22, §23
8. […]

In assay [3] the target is Guanidinoacetate N-methyltransferase (Homo sapiens) (UniProt Q14353). The note with it: purified enzyme, MTase-Glo SAH luminescence; measured here: GAMT inhibition; at 40 µM; stronger effect = lower value.
Text: as §1, §2, §3, §4, §5, §6, §7, §8, §9, §10, §11, §12, §13, §14, §15, §16, §17, §18, §19, §20, §21, §22, §23
8. […]

Assay [4] deals with Histamine N-methyltransferase (Homo sapiens) (UniProt P50135). The note with it: purified enzyme, MTase-Glo SAH luminescence; measured here: HNMT inhibition; at 40 µM; stronger effect = lower value.
Text: as §1, §2, §3, §4, §5, §6, §7, §8, §9, §10, §11, §12, §13, §14, §15, §16, §17, §18, §19, §20, §21, §22, §23
8. […]

Assay [5] deals with Nicotinamide N-methyltransferase (Homo sapiens) (UniProt P40261). The note with it: purified enzyme, MTase-Glo SAH luminescence; measured here: NNMT inhibition; at 40 µM; stronger effect = lower value.
Text: as §1, §2, §3, §4, §5, §6, §7, §8, §9, §10, §11, §12, §13, §14, §15, §16, §17, §18, §19, §20, §21, §22, §23
8. […]

The target in assay [6] is Phenylethanolamine N-methyltransferase (Homo sapiens) (UniProt P11086). The note with it: purified enzyme, MTase-Glo SAH luminescence; measured here: PNMT inhibition; at 40 µM; stronger effect = lower value.
Text: as §1, §2, §3, §4, §5, §6, §7, §8, §9, §10, §11, §12, §13, §14, §15, §16, §17, §18, §19, §20, §21, §22, §23
8. […]
% is set by controls: 0 for no effect and ±100 for the full control effect.

As for `O=C(Nc1cccc(C(F)(F)F)c1)c1ccccc1NCc1ccncc1`, the activity change, negative = inhibition is inactive: -0.028% in assay [1]; 5.97% in assay [2]; -2.48% in assay [3]; 1.15% in assay [4]; -17.7% in assay [5]; -3.66% in assay [6].
Consider `N#Cc1ccc2c(c1)CCN(CCC1CCC(NC(=O)c3ccnc4ccccc34)CC1)C2` (stereo not drawn), for which the activity change, negative = inhibition is inactive: 2.42% in assay [1]; -1.42% in assay [2]; 2.04% in assay [3]; 3.95% in assay [4]; -24.4% in assay [5]; -3.51% in assay [6].
Regarding `COc1ccc(-c2c(C)c(C(=O)NN3CCCCC3)nn2-c2ccc(Cl)cc2Cl)cc1`, the activity change, negative = inhibition was inactive: -1.9% in assay [1]; -3.88% in assay [2]; -1.92% in assay [3]; 3% in assay [4]; -27.5% in assay [5]; -8.88% in assay [6].
